From patent US11442059B2, “Method for treating a chronic itch condition by administering small molecule MrgprX4 antagonists” (The Johns Hopkins University, priority 2017, dated 2022)
Several values for one entry are separate records, joined by “and”; a condition that tells them apart may be missing. Identical values can stand only once. At least one structure is not confirmed: it was looked up by name or label, or the drawing left a doubt.

By UniProt entry, the sequences of proteins in these tests, tags left out. Where a name states a change or a piece, a line headed by the entry shows the natural chain unless it says otherwise.
UniProt Q96LA9: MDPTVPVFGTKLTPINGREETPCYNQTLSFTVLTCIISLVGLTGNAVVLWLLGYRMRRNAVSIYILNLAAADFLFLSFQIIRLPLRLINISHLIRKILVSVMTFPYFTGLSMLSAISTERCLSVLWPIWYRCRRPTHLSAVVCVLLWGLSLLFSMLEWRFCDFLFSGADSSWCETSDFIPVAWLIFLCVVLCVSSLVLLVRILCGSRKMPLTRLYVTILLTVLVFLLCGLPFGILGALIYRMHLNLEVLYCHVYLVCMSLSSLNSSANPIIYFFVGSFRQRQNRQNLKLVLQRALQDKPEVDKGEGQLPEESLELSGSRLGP
UniProt Q96LB0: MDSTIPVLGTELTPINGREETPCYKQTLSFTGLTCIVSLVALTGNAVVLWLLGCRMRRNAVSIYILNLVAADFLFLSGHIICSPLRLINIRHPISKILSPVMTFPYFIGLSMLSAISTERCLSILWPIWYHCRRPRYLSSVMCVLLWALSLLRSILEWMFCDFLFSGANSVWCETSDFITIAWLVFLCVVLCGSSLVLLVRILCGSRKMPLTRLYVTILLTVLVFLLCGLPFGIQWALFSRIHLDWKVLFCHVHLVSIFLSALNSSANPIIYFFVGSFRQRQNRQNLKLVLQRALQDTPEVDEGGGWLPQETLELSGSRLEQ

Experiments:
mice = assay: Acute itch behaviour after injection (scratching bouts); format: in vivo, mouse
[1] = system: small-diameter DRG sensory neurons; assay: DRG electrophysiology (whole-cell current-clamp); format: cell-based, mouse; conditions: 50 μM bilirubin
MRGPRX4 [2] = molecular target: T1, MRGPRX4 (Homo sapiens, UniProt Q96LA9); assay: [35S]GTPγS binding, MRGPRX4 membrane complexes; format: biochemical; set-up: expressed in transfected cells; whole cells or crude membrane fraction; conditions: 50 μM bilirubin
MrgprA1 [3] = molecular target: T2, MrgprA1 (Mus musculus, UniProt Q91WW5); assay: [35S]GTPγS binding, MRGPRA1 membrane complexes; format: biochemical; conditions: 50 μM bilirubin
T2 construct: expressed in transfected cells; whole cells or crude membrane fraction
T2 sequence (Q91WW5 1-304): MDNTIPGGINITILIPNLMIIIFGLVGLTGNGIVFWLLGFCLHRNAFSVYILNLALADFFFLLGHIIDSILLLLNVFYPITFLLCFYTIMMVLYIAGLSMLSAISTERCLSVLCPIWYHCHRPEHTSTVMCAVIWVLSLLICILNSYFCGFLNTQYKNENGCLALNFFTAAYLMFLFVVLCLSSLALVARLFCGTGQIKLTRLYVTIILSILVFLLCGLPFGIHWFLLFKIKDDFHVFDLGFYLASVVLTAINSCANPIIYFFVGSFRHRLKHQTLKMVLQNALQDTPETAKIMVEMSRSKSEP

peritoneal mast cells [4] = assay: Mouse peritoneal mast cell calcium imaging; format: cell-based; conditions: 100 μM bilirubin
MRGPRC11 [5] = molecular target: T3, MRGPRC11 (Mus musculus, UniProt Q8CIP3); assay: [35S]GTPγS binding, MRGPRC11 membrane complexes; format: biochemical; conditions: 50 μM bilirubin
T3 construct: expressed in transfected cells
T3 sequence (Q8CIP3 1-322): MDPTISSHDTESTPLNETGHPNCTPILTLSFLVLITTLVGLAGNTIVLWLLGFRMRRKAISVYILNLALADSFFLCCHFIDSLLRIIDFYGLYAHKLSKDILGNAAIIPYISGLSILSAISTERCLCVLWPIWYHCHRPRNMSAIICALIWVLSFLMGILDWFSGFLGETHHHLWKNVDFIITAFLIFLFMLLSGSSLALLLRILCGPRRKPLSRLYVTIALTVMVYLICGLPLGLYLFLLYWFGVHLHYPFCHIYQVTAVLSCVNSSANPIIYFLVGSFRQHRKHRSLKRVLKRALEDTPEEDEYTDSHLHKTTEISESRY

MrgprA1 [6] = molecular target: T2, MrgprA1; assay: Calcium imaging of Cluster−/− DRGs transduced with Mrgpra1 lentivirus; format: cell-based; conditions: 50 μM bilirubin
peritoneal mast cells [7] = assay: Mouse peritoneal mast cell histamine release assay; format: cell-based; conditions: 100 μM bilirubin
MRGPRX3 = molecular target: T4, MRGPRX3 (Homo sapiens, UniProt Q96LB0); assay: Calcium imaging of Cluster−/− DRGs transduced with MRGPRX3 lentivirus; format: cell-based; conditions: 50 μM bilirubin
T4 construct: expressed in transfected cells; host or cells: HEK cells

MRGPRX4 [8] = molecular target: T1, MRGPRX4; assay: Calcium imaging of Cluster−/− DRGs transduced with MRGPRX4 lentivirus; format: cell-based; set-up: expressed in transfected cells; whole cells or crude membrane fraction; conditions: 50 μM bilirubin
MRGPRC11 [9] = molecular target: T3, MRGPRC11; assay: Microscale thermophoresis binding assay, MRGPRC11; conditions: FIG. 24N

SMILES | itch responses in WT versus Cluster KO animals (mice; injection at nape or cheek) | neurons with elicited action potentials ([1]; A1−/− DRG small-diameter neurons) | neurons with elicited action potentials ([1]; WT DRG small-diameter neurons) | GTP binding to MRGPRX4 membrane complexes (MRGPRX4 [2]) | GTP binding to MRGPRA1 membrane complexes (MrgprA1 [3]) | calcium response of peritoneal mast cells (peritoneal mast cells [4]) | GTP binding to MRGPRC11 membrane complexes (MRGPRC11 [5]) | Mrgpra1-transduced Cluster−/− DRGs activated (MrgprA1 [6]) [%] | wiping and licking (pain behaviour) (mice; 6 μg into cheek / paw) | itch elicited in Cluster KO animals (mice; Cluster KO mice) | scratching / itch elicited by injection (mice; WT mice) | histamine release from peritoneal mast cells (peritoneal mast cells [7]) | response of MRGPRX3-infected Cluster−/− DRGs (MRGPRX3) | MRGPRX4-transduced Cluster−/− DRGs activated (MRGPRX4 [8]) [%] | affinity for MRGPRC11 (MRGPRC11 [9])
C[C@H](CCC(=O)O)[C@H]1CC[C@H]2[C@@H]3CC[C@@H]4C[C@H](O)CC[C@]4(C)[C@H]3C[C@H](O)[C@]12C [DCA, deoxycholic acid] | comparable itch responses |  |  |  |  |  |  |  |  |  |  |  |  |  | 
C=CC1=C(C)/C(=C/c2[nH]c(Cc3[nH]c(/C=C4\NC(=O)C(C)=C4C=C)c(C)c3CCC(=O)O)c(CCC(=O)O)c2C)NC1=O [bilirubin, bilirubin IXa] |  | 0 out of 60 and 0 of 60 | 5 out of 50 and 5 of 50 | increased GTP binding | increased GTP binding | did not elicit a calcium response | but not to MRGPRC11 | 14 | neither wiping nor licking | failed to elicit itch | stimulated scratching in a dose-dependent manner | did not elicit a calcium response or induce appreciable histamine release | failed to respond | 32 | little to no affinity
